PubChem BioAssay AID1259331 – Drosophila RNAi Screening Center, 2017
Screen: 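Fly transmembrane-protein genes that affect zinc toxicity in cultured cells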 (primary screen). Cells: Drosophila S2R+ cells. Reagent: long dsRNA against Drosophila genes. Time to read-out: 5 days (4 days knock-down, then 1 day zinc). Treatment: zinc chloride at 15 mM final level for 1 day. Detection: 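Total cellular ATP measured by luciferase luminescence as a viability proxy, turned into Z scores from three plate copies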. Reading the numbers: mean Z score: higher = more ATP than other wells, better survival under zinc; ATP luminescence: higher = more ATP, more viable cells. Call rule: 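Hit when the absolute Z score is greater than 1.5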. Calls: active = hit, ATP up or down; inactive = not a hit.
In all, the deposit lists about 3,100 reagents; this is a part drawn at random. 126 of all reagents (4.1%) were called active. 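Calls are per reagent; zinc was so toxic that few knock-downs lowered ATP further, so most hits raise ATP.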 The raw values are shown without normalisation. Unmarked entries are inactive. A plus sign joins genes that one reagent is predicted to hit. Not given: the amount of reagent.

Target gene | DRSC id | mean Z score | ATP luminescence, replicate 1 | ATP luminescence, replicate 2
foi (fear-of-intimacy) | DRSC10719 | 5.25 (active) | 1.76e5 | 1.32e5
foi (fear-of-intimacy) | DRSC29596 | 0.597 | 68435 | 72808
CG2061 | DRSC19348 | -0.218 | 42422 | 45525
CG2061 | DRSC39511 | 0.958 | 60666 | 67252
CG33673 | DRSC00084 | -0.218 | 38942 | 40928
CG33673 | DRSC38938 | 0.00495 | 47154 | 48252
CG4615 | DRSC17491 | -0.478 | 66840 | 63856
CG4615 | DRSC18376 | 5.72 (active) | 1.05e5 | 1.17e5
CG4615 | DRSC26722 | -0.0333 | 60306 | 54281
CG9240 | DRSC20177 | 0.693 | 78606 | 76445
Asph (Aspartyl beta-hydroxylase) | DRSC06783 | 0.326 | 70150 | 78366
Asph (Aspartyl beta-hydroxylase) | DRSC29507 | 0.764 | 73855 | 72483
rut (rutabaga) | DRSC22976 | -0.0189 | 50772 | 43059
mthl1 (methuselah-like 1) | DRSC19905 | 0.164 | 45491 | 44874
mthl1 (methuselah-like 1) | DRSC39903 | 1.37 | 77199 | 81076
Fur1 (Furin 1) | DRSC13707 | -0.385 | 69138 | 58660
Fur1 (Furin 1) | DRSC16676 | 2.26 (active) | 74185 | 75261
CG5646 | DRSC15853 | -0.3 | 42262 | 42336
CG5646 | DRSC29759 | 0.306 | 68364 | 63822
Best1 (Bestrophin 1) | DRSC26475 | 0.48 | 70703 | 63479
Best1 (Bestrophin 1) | DRSC39616 | 0.442 | 62621 | 68761
Osi20 (Osiris 20) | DRSC12568 | -1.31 | 50652 | 40365
Osi20 (Osiris 20) | DRSC28630 | -0.506 | 59997 | 47069
PGRP-LB (Peptidoglycan recognition protein LB) | DRSC14926 | 0.0119 | 45783 | 45903
PGRP-LB (Peptidoglycan recognition protein LB) | DRSC39813 | 0.136 | 56379 | 59997
CG4607 | DRSC18375 | -0.398 | 59877 | 59003
Eglp1 (Entomoglyceroporin 1) | DRSC04502 | -0.831 | 26531 | 23318
Lrch (Leucine-rich-repeats and calponin homology domain protein) | DRSC02996 | -0.0846 | 54459 | 55625
Lrch (Leucine-rich-repeats and calponin homology domain protein) | DRSC29145 | -0.11 | 57099 | 62336
CG1907 | DRSC15399 | -0.32 | 37450 | 43965
SP1173 | DRSC11277 | -0.566 | 25708 | 28176
Poxm + Ctr1B | DRSC16245 | 0.139 | 36456 | 57905
Poxm + Ctr1B | DRSC39592 | -0.429 | 59637 | 53087
Vha100-4 (Vacuolar H[+] ATPase 100kD subunit 4) | DRSC16282 | 0.054 | 36936 | 59569
Vha100-4 (Vacuolar H[+] ATPase 100kD subunit 4) | DRSC26139 | 0.775 | 63393 | 64936
CG12355 | DRSC09381 | 0.528 | 54321 | 40253
CG12355 | DRSC09883 | -0.106 | 71812 | 60666
eloF (elongase F) | DRSC15162 | -0.288 | 35959 | 54819
eloF (elongase F) | DRSC25406 | 0.732 | 54373 | 91300
TM9SF4 (Transmembrane 9 superfamily protein member 4) | DRSC01888 | -0.339 | 48680 | 54368
TM9SF4 (Transmembrane 9 superfamily protein member 4) | DRSC39660 | 0.254 | 66000 | 61972
CG14234 | DRSC19317 | -0.6 | 80115 | 57717
CG14234 | DRSC19589 | -0.187 | 40742 | 40759
Atg9 (Autophagy-related 9) | DRSC38118 | -0.125 | 44582 | 46678
Atg9 (Autophagy-related 9) | DRSC38119 | -0.0176 | 48303 | 45628
CG6574 | DRSC16070 | -0.0318 | 36285 | 56259
CG6574 | DRSC39694 | -0.216 | 58510 | 57139
Psn (Presenilin) | DRSC11743 | 0.168 | 76736 | 65005
Ndae1 (Na[+]-driven anion exchanger 1) | DRSC02770 | 1.67 (active) | 76697 | 83168
Ndae1 (Na[+]-driven anion exchanger 1) | DRSC39781 | 1.53 (active) | 73958 | 82036
CG3625 | DRSC00008 | -0.0589 | 43674 | 40348
CG3625 | DRSC00621 | 1.04 | 68469 | 73460
Fie (Fire exit) | DRSC08158 | -0.291 | 25206 | 32702
Fie (Fire exit) | DRSC39856 | -0.21 | 50258 | 62844
VhaPPA1-2 (Vacuolar H[+] ATPase PPA1 subunit 2) | DRSC16176 | -0.124 | 40340 | 54184
VhaPPA1-2 (Vacuolar H[+] ATPase PPA1 subunit 2) | DRSC25591 | -0.258 | 48474 | 58163
CG12290 | DRSC14497 | -0.554 | 41685 | 38359
CG12290 | DRSC28328 | -0.323 | 50481 | 62450
CG12783 | DRSC14538 | 0.0196 | 44222 | 55299
Cds (CDP-diacylglycerol synthase) | DRSC10938 | -0.369 | 28622 | 28519
CG7881 | DRSC04898 | -0.186 | 1.03e5 | 68778
CG7881 | DRSC39816 | 0.0639 | 54304 | 60117
Or94a (Odorant receptor 94a) | DRSC16772 | -0.0772 | 38736 | 58077
CG8112 | DRSC16377 | 0.426 | 37605 | 63479
CG8112 | DRSC39422 | -0.147 | 50618 | 47411
ds (dachsous) | DRSC00815 | 1.09 | 60777 | 54184
acs (arcus) | DRSC08185 | -0.647 | 58248 | 59329
acs (arcus) | DRSC27629 | -0.659 | 41258 | 49880
